# Assay results from patent publication US20210060320A1, “TRANSDERMAL DRUG DELIVERY SYSTEM AND METHOD FOR USING SAME” (NICHIBAN CO., LTD., priority 2017, published 2021).
# Settings: pH 8
# Description: Note that in the present invention, as an index of the “water solubility” in a “water-soluble drug” or a “water-soluble steroid”, a distribution coefficient (octanol/water distribution coefficient) can be employed. The distribution coefficient can be expressed by log D by taking into consideration of the influence of pH, and the water solubility is indicated by a minus value, while the liposolubility lipophilicity is indicated by a plus value.
# The distribution coefficient can be obtained in accordance with the method described in JIS Z7260-107 or […].
smiles,measurement,value
C[C@H]1C[C@H]2[C@@H]3CCC4=CC(=O)C=C[C@]4(C)[C@@]3(F)[C@@H](O)C[C@]2(C)[C@@]1(O)C(=O)COP(=O)([O-])[O-].[Na+].[Na+] [betamethasone sodium phosphate],distribution coefficient (log D),−5
